Results are given in words; binding and its absence hold for the method and conditions named. In cells and extracts the contact can be indirect. Some entries that bind do so weakly or less than the wild type. For part of these data: Tags and fused reporters may be left off the sequences shown.
T1: Flag-PERM1 (PGC-1/ERR-induced regulator in muscle 1) (mouse) (UniProt Q149B8)
T1 sequence: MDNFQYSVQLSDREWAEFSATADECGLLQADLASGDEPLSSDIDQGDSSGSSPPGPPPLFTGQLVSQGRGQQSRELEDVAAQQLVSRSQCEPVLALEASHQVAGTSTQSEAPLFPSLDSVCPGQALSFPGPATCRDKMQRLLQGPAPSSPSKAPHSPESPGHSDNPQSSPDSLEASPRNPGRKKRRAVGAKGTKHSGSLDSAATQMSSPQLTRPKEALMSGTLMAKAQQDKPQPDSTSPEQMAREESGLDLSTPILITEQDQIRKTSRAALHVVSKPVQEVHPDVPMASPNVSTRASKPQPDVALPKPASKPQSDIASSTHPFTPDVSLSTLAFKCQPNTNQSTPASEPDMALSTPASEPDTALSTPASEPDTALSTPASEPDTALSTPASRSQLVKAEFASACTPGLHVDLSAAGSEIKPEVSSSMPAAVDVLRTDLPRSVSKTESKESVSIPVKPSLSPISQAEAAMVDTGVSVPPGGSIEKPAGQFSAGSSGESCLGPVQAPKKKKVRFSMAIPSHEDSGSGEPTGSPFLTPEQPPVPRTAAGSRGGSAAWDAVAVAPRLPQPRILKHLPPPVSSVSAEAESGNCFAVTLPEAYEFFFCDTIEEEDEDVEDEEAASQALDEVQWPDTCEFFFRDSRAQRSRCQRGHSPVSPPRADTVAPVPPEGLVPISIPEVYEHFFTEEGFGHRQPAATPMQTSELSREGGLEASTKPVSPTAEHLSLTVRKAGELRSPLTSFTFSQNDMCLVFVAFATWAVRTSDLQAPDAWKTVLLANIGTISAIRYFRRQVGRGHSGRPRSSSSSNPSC

T2: PERM1 (endogenous, mouse heart) (mouse (endogenous in mouse heart)) (UniProt Q149B8)
T2 sequence: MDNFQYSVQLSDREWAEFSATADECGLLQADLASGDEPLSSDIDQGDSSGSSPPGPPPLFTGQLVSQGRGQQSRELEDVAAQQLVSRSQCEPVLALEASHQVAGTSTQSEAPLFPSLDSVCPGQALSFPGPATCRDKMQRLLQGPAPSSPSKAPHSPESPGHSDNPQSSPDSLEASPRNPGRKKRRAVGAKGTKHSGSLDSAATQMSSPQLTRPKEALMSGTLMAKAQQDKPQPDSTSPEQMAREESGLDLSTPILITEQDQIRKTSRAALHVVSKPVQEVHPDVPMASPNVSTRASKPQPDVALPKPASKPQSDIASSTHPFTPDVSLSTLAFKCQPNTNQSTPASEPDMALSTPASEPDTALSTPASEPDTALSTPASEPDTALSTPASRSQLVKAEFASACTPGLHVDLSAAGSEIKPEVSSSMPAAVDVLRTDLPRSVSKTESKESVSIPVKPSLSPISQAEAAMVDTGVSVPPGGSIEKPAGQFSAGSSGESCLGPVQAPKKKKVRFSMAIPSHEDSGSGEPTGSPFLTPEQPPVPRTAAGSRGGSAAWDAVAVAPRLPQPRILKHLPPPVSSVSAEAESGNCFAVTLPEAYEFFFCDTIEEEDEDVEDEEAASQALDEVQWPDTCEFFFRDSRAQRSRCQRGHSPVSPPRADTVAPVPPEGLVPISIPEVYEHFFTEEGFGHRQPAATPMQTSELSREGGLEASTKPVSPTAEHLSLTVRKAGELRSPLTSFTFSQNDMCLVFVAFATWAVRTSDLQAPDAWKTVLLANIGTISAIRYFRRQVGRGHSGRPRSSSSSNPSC


Experiments:
[1] = molecular target: T1, Flag-PERM1 (PGC-1/ERR-induced regulator in muscle 1) (mouse); experiment: co-IP; neonatal rat ventricular cardiomyocytes transduced with Flag-PERM1 adenovirus for one day; precipitated with anti-Flag M2 affinity gel overnight at 4 °C; immunoblot for PPARα or PGC-1α
[2] = molecular target: T2, PERM1 (endogenous, mouse heart) (mouse (endogenous in mouse heart)); experiment: co-IP; mouse heart lysate; precipitated with anti-PERM1 antibody or control IgG overnight at 4 °C, Protein A/G-Agarose; immunoblot for PGC-1α

binding [1] | binding [2] | Binder
binds | – | PGC-1α (endogenous, neonatal rat ventricular cardiomyocytes) (protein, UniProt Q9QYK2 1-796) MAWDMCSQDSVWSDIECAALVGEDQPLCPDLPELDLSELDVNDLDTDSFLGGLKWCSDQSEIISNQYNNEPANIFEKIDEENEANLLAVLTETLDSLPVDEDGLPSFDALTDGDVTTDNEASPSSMPDGTPPPQEAEEPSLLKKLLLAPANTQLSYNECSGLSTQNHANHTHRIRTNPAIVKTENSWSNKAKSICQQQKPQRRPCSELLKYLTTNDDPPHTKPTENRNSSRDKCASKKKSHTQPQSQHAQAKPTTLSLPLTPESPNDPKGSPFENKTIERTLSVELSGTAGLTPPTTPPHKANQDNPFKASPKLKPSCKTVVPPPTKRARYSECSGTQGSHSTKKGPEQSELYAQLSKSSVLSRGHEERKTKRPSLRLFGDHDYCQSVNSKTDILINISQELQDSRQLDFKDASCDWQGHICSSTDSSQCYLRETLEASKQVSPCSTRKQLQDQEIRAELNKHFGHPSQAVFDDKVDKTSELRDGNFSNEQFSKLPVFINSGLAMDGLFDDSEDENDKLSYPWDGTQSYSLFDVSPSCSSFNSPCRDSVSPPKSLFSQRPQRMRSRSRSFSRHRSCSRSPYSRSRSRSPGSRSSSRSCYYYESSHYRHRTHRNSPLYVRSRSRSPYSRRPRYDSYEANEHERLKRDEYRREYEKRESERAKQRERQKQKAIEERRVIYVGKIRPDTTRTELRDRFEVFGEIEECTVNLRDDGDSYGFITYRYTCDAFAALENGYTLRRSNETDFELYFCGRKQFFKSNYADLDSNSDDFDPASTKSKYDSLDFDSLLKEAQRSLRR
– | binds | PGC-1α (endogenous, mouse heart) (protein, UniProt O70343 1-797) MAWDMCSQDSVWSDIECAALVGEDQPLCPDLPELDLSELDVNDLDTDSFLGGLKWCSDQSEIISNQYNNEPANIFEKIDEENEANLLAVLTETLDSLPVDEDGLPSFDALTDGAVTTDNEASPSSMPDGTPPPQEAEEPSLLKKLLLAPANTQLSYNECSGLSTQNHAANHTHRIRTNPAIVKTENSWSNKAKSICQQQKPQRRPCSELLKYLTTNDDPPHTKPTENRNSSRDKCASKKKSHTQPQSQHAQAKPTTLSLPLTPESPNDPKGSPFENKTIERTLSVELSGTAGLTPPTTPPHKANQDNPFKASPKLKPSCKTVVPPPTKRARYSECSGTQGSHSTKKGPEQSELYAQLSKSSGLSRGHEERKTKRPSLRLFGDHDYCQSLNSKTDILINISQELQDSRQLDFKDASCDWQGHICSSTDSGQCYLRETLEASKQVSPCSTRKQLQDQEIRAELNKHFGHPCQAVFDDKSDKTSELRDGDFSNEQFSKLPVFINSGLAMDGLFDDSEDESDKLSYPWDGTQPYSLFDVSPSCSSFNSPCRDSVSPPKSLFSQRPQRMRSRSRSFSRHRSCSRSPYSRSRSRSPGSRSSSRSCYYYESSHYRHRTHRNSPLYVRSRSRSPYSRRPRYDSYEAYEHERLKRDEYRKEHEKRESERAKQRERQKQKAIEERRVIYVGKIRPDTTRTELRDRFEVFGEIEECTVNLRDDGDSYGFITYRYTCDAFAALENGYTLRRSNETDFELYFCGRKQFFKSNYADLDTNSDDFDPASTKSKYDSLDFDSLLKEAQRSLRR
binds | – | PPARα (endogenous, neonatal rat ventricular cardiomyocytes) (protein, UniProt P37230 1-468) MVDTESPICPLSPLEADDLESPLSEEFLQEMGNIQEISQSLGEESSGSFSFADYQYLGSCPGSEGSVITDTLSPASSPSSVSCPAVPTSTDESPGNALNIECRICGDKASGYHYGVHACEGCKGFFRRTIRLKLAYDKCDRSCKIQKKNRNKCQYCRFHKCLSVGMSHNAIRFGRMPRSEKAKLKAEILTCEHDLKDSETADLKSLAKRIHEAYLKNFNMNKVKARVILAGKTSNNPPFVIHDMETLCMAEKTLVAKMVANGVENKEAEVRFFHCCQCMSVETVTELTEFAKAIPGFANLDLNDQVTLLKYGVYEAIFTMLSSLMNKDGMLIAYGNGFITREFLKNLRKPFCDIMEPKFDFAMKFNALELDDSDISLFVAAIICCGDRPGLLNIGYIEKLQEGIVHVLKLHLQSNHPDDTFLFPKLLQKMVDLRQLVTEHAQLVQVIKKTESDAALHPLLQEIYRDMY

From PMC9418182
